The record followed here is doi:10.1101/719815 (bioRxiv, 2019).

The target of assay [1] is T1, Cdc11-mCherry-Cub-GFP (Cdc11CCG) (yeast) (UniProt P32458).
T1 sequence: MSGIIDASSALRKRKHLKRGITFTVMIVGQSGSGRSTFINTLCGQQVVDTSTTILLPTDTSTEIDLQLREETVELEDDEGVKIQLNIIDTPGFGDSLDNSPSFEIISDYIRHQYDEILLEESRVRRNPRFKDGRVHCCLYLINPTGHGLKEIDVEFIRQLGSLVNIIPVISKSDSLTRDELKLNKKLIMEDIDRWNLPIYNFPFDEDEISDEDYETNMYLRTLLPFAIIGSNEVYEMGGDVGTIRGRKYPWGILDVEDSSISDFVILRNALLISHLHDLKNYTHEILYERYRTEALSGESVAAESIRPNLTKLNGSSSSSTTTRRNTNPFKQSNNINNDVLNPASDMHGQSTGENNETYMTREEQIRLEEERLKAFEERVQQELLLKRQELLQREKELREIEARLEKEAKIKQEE
As to the kind of experiment: split reporter.

In assay [2] the target is T2, Cdc24 extended by the Cub-RUra3 module (Cdc24CRU) (yeast), P11433.
T2 chain: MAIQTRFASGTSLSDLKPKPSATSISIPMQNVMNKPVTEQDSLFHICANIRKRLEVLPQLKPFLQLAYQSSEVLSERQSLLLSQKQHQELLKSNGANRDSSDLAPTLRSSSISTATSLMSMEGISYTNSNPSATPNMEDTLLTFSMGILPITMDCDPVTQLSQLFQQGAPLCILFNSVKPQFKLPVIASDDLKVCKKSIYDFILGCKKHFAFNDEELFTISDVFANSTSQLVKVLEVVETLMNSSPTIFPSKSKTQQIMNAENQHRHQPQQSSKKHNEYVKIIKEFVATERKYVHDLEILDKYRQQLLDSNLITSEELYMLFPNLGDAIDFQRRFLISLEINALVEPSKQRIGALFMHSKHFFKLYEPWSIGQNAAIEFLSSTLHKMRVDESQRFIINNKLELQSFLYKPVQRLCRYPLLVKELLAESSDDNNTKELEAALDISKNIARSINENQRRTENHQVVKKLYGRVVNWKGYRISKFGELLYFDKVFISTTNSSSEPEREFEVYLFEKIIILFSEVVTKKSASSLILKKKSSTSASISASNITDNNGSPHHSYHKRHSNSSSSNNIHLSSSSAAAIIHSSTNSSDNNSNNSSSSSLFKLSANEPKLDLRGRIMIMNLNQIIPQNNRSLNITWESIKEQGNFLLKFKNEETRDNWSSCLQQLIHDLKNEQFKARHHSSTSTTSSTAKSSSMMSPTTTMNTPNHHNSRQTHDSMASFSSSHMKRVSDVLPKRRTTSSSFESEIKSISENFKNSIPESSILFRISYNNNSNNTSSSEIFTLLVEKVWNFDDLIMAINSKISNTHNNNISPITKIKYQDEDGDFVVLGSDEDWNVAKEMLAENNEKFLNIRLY
Nature of the assay: split reporter. To be noted: remark: other sources report otherwise.

No constants are given. Whether binding was seen depends on the method and setting. In cells and extracts the contact can be indirect. Some results given as binding are weak or reduced against the parent protein; the word gives no strength. For some assays here: Tags and fused reporters may be left off the sequences shown.

B1: Nub-Cdc24 (protein, UniProt P11433 1-854)
chain: MAIQTRFASGTSLSDLKPKPSATSISIPMQNVMNKPVTEQDSLFHICANIRKRLEVLPQLKPFLQLAYQSSEVLSERQSLLLSQKQHQELLKSNGANRDSSDLAPTLRSSSISTATSLMSMEGISYTNSNPSATPNMEDTLLTFSMGILPITMDCDPVTQLSQLFQQGAPLCILFNSVKPQFKLPVIASDDLKVCKKSIYDFILGCKKHFAFNDEELFTISDVFANSTSQLVKVLEVVETLMNSSPTIFPSKSKTQQIMNAENQHRHQPQQSSKKHNEYVKIIKEFVATERKYVHDLEILDKYRQQLLDSNLITSEELYMLFPNLGDAIDFQRRFLISLEINALVEPSKQRIGALFMHSKHFFKLYEPWSIGQNAAIEFLSSTLHKMRVDESQRFIINNKLELQSFLYKPVQRLCRYPLLVKELLAESSDDNNTKELEAALDISKNIARSINENQRRTENHQVVKKLYGRVVNWKGYRISKFGELLYFDKVFISTTNSSSEPEREFEVYLFEKIIILFSEVVTKKSASSLILKKKSSTSASISASNITDNNGSPHHSYHKRHSNSSSSNNIHLSSSSAAAIIHSSTNSSDNNSNNSSSSSLFKLSANEPKLDLRGRIMIMNLNQIIPQNNRSLNITWESIKEQGNFLLKFKNEETRDNWSSCLQQLIHDLKNEQFKARHHSSTSTTSSTAKSSSMMSPTTTMNTPNHHNSRQTHDSMASFSSSHMKRVSDVLPKRRTTSSSFESEIKSISENFKNSIPESSILFRISYNNNSNNTSSSEIFTLLVEKVWNFDDLIMAINSKISNTHNNNISPITKIKYQDEDGDFVVLGSDEDWNVAKEMLAENNEKFLNIRLY
As to B1, the binding result in assay [1] is reported as “binds”.

B2: Nub-Rsr1, P13856 1-272 (protein)
chain: MRDYKLVVLGAGGVGKSCLTVQFVQGVYLDTYDPTIEDSYRKTIEIDNKVFDLEILDTAGIAQFTAMRELYIKSGMGFLLVYSVTDRQSLEELMELREQVLRIKDSDRVPMVLIGNKADLINERVISVEEGIEVSSKWGRVPFYETSALLRSNVDEVFVDLVRQIIRNEMESVAVKDARNQSQQFSKIESPSTRLPSSAKQDTKQSNNKQSSKGLYNKSSQGQAKVKQSTPVNEKHKPSHAVPKSGSSNRTGISATSQQKKKKKNASTCTIL
Take B2: the binding entry in assay [2] was “binds”.
